Assay results published in the supplement of paper PMC12889115.
The other results are listed elsewhere or left out. Values are raw readings; no control value is given beside them.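 Primary screen: polymyxin B was added at a level permeabilizing Salmonella outer membranes while sparing inner membranes. DMSO wells, both with and without polymyxin B, established maximum growth. Plate-to-plate variation meant each plate was ranked on its own, and the lowest-OD600 compounds were selected as hits.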

Test system: Salmonella enterica serovar Typhimurium SL1344
Assay: bacterial growth OD600 after 18 h with compound and polymyxin B; higher = more bacterial growth (less inhibition)
Settings: 50 µM, Mueller-Hinton broth

SMILES	bacterial growth OD600 (polymyxin B 0.75 µg/mL)	bacterial growth OD600 (polymyxin B 1 µg/mL)
O=C(Nc1nc2c(s1)C(=O)CC(C(=O)NC(c1ccccc1)c1ccccc1)C2)c1ccncc1 (stereo unspecified)	0.746	–
O=C(CCC1CCCN(C(=O)c2ccsc2)C1)NCc1ccccc1Cl (stereo unspecified)	–	0.947
COc1ccc(F)c(CN2CCCC(CO)(Cc3ccc(F)cc3)C2)c1 (stereo unspecified)	0.678	–
Cc1cc(C)n(-c2cccc(CN(C)C(=O)C3CCC(=O)N(C4CCCC4)C3)c2)n1 (stereo unspecified)	–	0.819
COc1cccc(CN2CCNC(=O)C2CC(=O)NCCc2cccnc2)c1OC (stereo unspecified)	–	0.75
COc1ccc(C(CC(=O)NCc2ccncn2)c2ccccc2)cc1 (stereo unspecified)	0.836	–
O=C(CCC(F)(F)F)NC1CC(=O)N(Cc2cccc(F)c2)C1 (stereo unspecified)	–	0.903
C=CC[C@@H]1CC=C[C@@H](C)N1C(=O)CCc1nnc(CCc2ccccc2OC)o1	0.007	–
CCOC(=O)C1(CCCc2ccccc2)CCCN(C(=O)c2snnc2C)C1 (stereo unspecified)	–	0.966
COCCNc1ccc(-c2nc(Cc3ccc(F)cc3)no2)cn1	–	0.812
COc1ccc(OC)c(CN2CCN(Cc3ccc(OC)c(C)c3C)C(CCO)C2)c1 (stereo unspecified)	–	0.938
Cc1ccccc1CCC1CCCN(C(=O)CCN2CCCC2=O)C1 (stereo unspecified)	–	0.965
COC(=O)c1ccc(-c2noc(CN(C)Cc3cccc(-n4cccn4)c3)n2)cc1	–	1.1
CC(C)c1nc(C(=O)N(Cc2cccnc2)CC2CCN(C3CCCC3)CC2)cs1	–	0.996
CN(C)C1(C(=O)N2CCCC2c2ccc(F)cc2)Cc2ccccc2C1 (stereo unspecified)	–	0.001
CCC(C)NC1CCN(c2ccc(NC(=O)c3ccc(C)cc3C)cc2)CC1 (stereo unspecified)	0.932	–

An excerpt from above in order of length of the SMILES, high to low:
SMILES	bacterial growth OD600 (polymyxin B 0.75 µg/mL)	bacterial growth OD600 (polymyxin B 1 µg/mL)
Cc1cc(C)n(-c2cccc(CN(C)C(=O)C3CCC(=O)N(C4CCCC4)C3)c2)n1 (stereo unspecified)	–	0.819
C=CC[C@@H]1CC=C[C@@H](C)N1C(=O)CCc1nnc(CCc2ccccc2OC)o1	0.007	–
O=C(CCC1CCCN(C(=O)c2ccsc2)C1)NCc1ccccc1Cl (stereo unspecified)	–	0.947

Continued:

SMILES	bacterial growth OD600 (polymyxin B 0.75 µg/mL)	bacterial growth OD600 (polymyxin B 1 µg/mL)
CN(C)c1nc2nonc2nc1N1CCCC(c2nc3ccccc3[nH]2)C1 (stereo unspecified)	0.772	–
CCn1c(-c2cccnc2)nc2cc(NC(=O)COC)cc(C(=O)N(C)Cc3ccc(F)cc3)c21	0.845	–
COC(=O)c1cccc(C(=O)N2CCC(C(Cc3ccc(F)cc3F)N(C)C(=O)C3CC3)CC2)c1 (stereo unspecified)	0.006	–
O=C(Cc1ccccn1)N1CCc2onc(-c3ccc(F)c(F)c3)c2C1	0.697	–
Cc1ccc(C)c(-c2cn3c(C(=O)NCc4ccon4)csc3n2)c1	0.424	–
Cc1ccc(CCC(=O)Nc2ccc3c(c2)CN(Cc2ccoc2)CC3)cc1	0.713	–
O=C(Nc1ccnn1C1CCN(Cc2c(F)ccc(F)c2F)CC1)C1CCCC1	0.815	–
COc1cccc(N2CCN(C(=O)c3cc(CC(C)c4ccccc4)no3)CC2=O)c1 (stereo unspecified)	0.837	–
O=C1CCCN1CC(=O)N1CCCC(CCc2ccccc2F)C1 (stereo unspecified)	0.796	–
Cc1c(C(=O)N(C)C(C)c2cccs2)cnn1-c1ncc2c(n1)-c1ccccc1CCC2 (stereo unspecified)	0.012	–
CC(Cc1ccccn1)N1CCC(N2CCC(C(=O)NCc3cccnc3)CC2)CC1 (stereo unspecified)	–	0.954
CC#CCN1C(=O)NC(CCc2ccccc2)(C2CCN(CCC(C)C)CC2)C1=O (stereo unspecified)	0.827	–
COc1cccc(-c2nc(CN3CCN(C(=O)c4ccco4)CC3)c(C)o2)c1OC	–	0.893
CCOc1ccccc1CN1CCc2c(C(=O)N3CCCCC3C(=O)OC)c(OC)cc(=O)n2CC1 (stereo unspecified)	0.857	–
COc1cccc(CNC(=O)CCC2CCCN(C(=O)CSc3nncn3C)C2)c1 (stereo unspecified)	–	0.667
